# Measurements reported in PMC13371181, “A paracrine-to-autocrine shunt of GREM1 fuels colorectal cancer metastasis via ACVR1C” (Molecular Cancer, 2026).
# T1: Flag-GFP-tagged ACVR1C (human) (UniProt Q8NER5)
# T1 sequence: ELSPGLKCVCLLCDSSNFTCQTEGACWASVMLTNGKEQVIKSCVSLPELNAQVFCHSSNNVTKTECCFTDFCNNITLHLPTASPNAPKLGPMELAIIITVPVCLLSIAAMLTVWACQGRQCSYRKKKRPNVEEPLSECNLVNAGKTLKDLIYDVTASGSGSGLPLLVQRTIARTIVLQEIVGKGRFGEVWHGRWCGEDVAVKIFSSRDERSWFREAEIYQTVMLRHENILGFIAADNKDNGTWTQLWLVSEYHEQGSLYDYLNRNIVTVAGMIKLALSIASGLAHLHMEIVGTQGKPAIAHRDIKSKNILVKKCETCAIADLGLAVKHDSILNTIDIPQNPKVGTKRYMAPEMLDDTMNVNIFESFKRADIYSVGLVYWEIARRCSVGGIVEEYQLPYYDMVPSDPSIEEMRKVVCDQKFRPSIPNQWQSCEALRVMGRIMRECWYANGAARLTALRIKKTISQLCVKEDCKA
# B1: HA-mCherry-tagged GREM1 (Gremlin 1) (ligand, UniProt O60565-1 25-184)
# chain: KKKGSQGAIPPPDKAQHNDSEQTQSPQQPGSRNRGRGQGRGTAMPGEEVLESSQEALHVTERKYLKRDWCKTQPLKQTIHEEGCNSRTIINRFCYGQCNSFYIPRHIRKEEGSFQSCSFCKPKKFTTMMVTLNCPELQPPTKKKRVTRVKQCRCISIDLD
# Tests used:
# [1] = target: T1, Flag-GFP-tagged ACVR1C (human); assay: co-IP; HCT116 cells transfected with truncation or point mutants of GREM1 or ACVR1C and the binding partner; NP40 lysis buffer
# [2] = target: truncated ACVR1C-ECD with deletion of amino acids 68–113 (human); assay: as above
binding [1],binding [2],Molecule
no binding,–,truncated GREM1 with deletion of amino acids 100–157 (human) (domain or fragment)
–,no binding,B1

# No constants are given. Whether binding was seen depends on the method and setting. In cells and extracts the contact can be indirect. Tags and fused reporters may be left off the sequences shown.
